In publication PMC4288368:
These are yes or no findings as the source states them, for the method shown. Binding seen in cells or lysates may run through a third protein. Here binding means that the protein was enriched with, or labelled near, the bait; the list need not be complete.

Chains of the proteins cited; added tags and fusions are not shown.
UniProt O95377: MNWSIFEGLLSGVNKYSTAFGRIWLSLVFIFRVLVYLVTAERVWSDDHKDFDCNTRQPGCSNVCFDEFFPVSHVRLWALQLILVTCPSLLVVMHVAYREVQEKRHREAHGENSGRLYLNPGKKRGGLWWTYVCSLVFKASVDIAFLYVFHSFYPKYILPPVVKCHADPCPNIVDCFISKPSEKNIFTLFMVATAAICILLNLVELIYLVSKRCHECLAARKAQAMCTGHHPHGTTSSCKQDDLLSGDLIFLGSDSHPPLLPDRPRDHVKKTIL
UniProt Q00610: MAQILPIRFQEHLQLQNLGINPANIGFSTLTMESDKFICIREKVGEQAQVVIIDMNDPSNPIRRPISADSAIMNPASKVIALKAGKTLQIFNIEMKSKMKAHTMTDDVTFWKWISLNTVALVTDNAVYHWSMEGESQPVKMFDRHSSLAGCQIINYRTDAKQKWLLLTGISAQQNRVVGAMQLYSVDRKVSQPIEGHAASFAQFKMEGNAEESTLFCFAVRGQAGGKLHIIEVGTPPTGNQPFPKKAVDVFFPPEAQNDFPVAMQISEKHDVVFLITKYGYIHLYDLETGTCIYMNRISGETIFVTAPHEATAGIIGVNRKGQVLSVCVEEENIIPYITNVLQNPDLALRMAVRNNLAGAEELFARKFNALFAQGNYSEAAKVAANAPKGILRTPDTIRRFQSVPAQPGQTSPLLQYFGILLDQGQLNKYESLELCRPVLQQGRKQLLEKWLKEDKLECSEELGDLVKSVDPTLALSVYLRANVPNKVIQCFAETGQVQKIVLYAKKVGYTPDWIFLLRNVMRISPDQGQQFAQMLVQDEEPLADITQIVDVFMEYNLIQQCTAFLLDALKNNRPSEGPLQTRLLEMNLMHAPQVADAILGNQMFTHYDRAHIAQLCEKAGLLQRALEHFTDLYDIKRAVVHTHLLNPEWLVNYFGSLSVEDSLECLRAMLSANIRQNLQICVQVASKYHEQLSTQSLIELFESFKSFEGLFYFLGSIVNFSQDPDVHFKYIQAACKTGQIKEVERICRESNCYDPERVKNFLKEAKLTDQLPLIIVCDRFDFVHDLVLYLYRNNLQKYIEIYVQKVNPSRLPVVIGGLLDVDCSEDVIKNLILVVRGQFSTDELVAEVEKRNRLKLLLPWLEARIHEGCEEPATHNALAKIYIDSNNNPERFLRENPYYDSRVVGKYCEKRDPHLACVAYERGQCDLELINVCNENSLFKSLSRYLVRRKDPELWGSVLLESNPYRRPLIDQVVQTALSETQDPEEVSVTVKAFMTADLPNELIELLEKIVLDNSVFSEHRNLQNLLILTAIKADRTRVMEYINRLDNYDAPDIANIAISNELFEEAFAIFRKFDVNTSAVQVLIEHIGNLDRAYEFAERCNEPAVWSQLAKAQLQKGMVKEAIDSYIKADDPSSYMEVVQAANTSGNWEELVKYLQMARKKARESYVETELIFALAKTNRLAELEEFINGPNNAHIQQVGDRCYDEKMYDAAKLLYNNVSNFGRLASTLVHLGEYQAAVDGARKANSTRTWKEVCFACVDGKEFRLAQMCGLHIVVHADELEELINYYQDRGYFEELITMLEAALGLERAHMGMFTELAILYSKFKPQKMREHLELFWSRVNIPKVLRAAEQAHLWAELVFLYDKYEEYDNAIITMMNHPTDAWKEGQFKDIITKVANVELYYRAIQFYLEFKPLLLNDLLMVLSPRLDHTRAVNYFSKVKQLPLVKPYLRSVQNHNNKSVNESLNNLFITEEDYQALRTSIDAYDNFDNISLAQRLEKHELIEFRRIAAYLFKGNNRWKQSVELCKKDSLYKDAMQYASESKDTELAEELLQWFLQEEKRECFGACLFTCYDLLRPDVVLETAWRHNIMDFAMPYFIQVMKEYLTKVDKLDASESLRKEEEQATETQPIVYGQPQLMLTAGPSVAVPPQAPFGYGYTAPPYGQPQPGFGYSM

Biological target: Connexin 31.1-EGFP (UniProt O95377)
Experiment: affinity purification with mass spectrometry; lysates of Cx31.1-EGFP-H1299 cells (control: H1299 cells stably expressing EGFP) immunoprecipitated with polyclonal anti-GFP and protein A/G PLUS-Agarose; buffer 50 mM Tris-HCl pH 7.4, 150 mM NaCl, 1% NP-40, 0.25% sodium deoxycholate, 1 mM EDTA; 4°C; SDS-PAGE, silver stain, bands absent from the control excised, HPLC-MS/MS; repeated three times

clathrin heavy chain (from UniProt Q00610 1-1675)
binding: binds
